Consider three substances from paper PMC5737659.

By UniProt entry, the sequences of proteins in these tests, tags left out. Residues count along the entry.
UniProt Q9Z2W9, residues 23-888: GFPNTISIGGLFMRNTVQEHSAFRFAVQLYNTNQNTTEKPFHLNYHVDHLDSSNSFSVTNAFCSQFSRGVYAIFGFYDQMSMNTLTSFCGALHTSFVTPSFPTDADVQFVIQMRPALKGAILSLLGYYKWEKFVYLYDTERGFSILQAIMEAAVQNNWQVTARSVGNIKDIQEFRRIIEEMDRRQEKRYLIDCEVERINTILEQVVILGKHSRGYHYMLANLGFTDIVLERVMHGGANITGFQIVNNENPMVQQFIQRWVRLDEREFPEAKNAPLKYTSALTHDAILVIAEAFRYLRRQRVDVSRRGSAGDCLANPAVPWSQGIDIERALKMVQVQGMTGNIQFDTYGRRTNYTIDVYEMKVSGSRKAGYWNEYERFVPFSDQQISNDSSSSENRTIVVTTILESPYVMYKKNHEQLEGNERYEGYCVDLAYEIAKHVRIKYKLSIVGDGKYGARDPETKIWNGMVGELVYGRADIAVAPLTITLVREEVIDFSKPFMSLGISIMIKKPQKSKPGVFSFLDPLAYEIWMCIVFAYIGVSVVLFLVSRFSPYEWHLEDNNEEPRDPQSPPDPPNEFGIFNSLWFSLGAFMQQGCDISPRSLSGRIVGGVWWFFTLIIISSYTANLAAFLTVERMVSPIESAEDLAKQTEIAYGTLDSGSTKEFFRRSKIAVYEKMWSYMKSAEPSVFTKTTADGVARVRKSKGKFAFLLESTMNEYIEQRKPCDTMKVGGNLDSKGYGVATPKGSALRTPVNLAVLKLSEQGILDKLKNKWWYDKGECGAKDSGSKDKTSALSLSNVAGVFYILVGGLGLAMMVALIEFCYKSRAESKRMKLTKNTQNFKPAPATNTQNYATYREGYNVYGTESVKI
UniProt Q3UH99, residues 31-525: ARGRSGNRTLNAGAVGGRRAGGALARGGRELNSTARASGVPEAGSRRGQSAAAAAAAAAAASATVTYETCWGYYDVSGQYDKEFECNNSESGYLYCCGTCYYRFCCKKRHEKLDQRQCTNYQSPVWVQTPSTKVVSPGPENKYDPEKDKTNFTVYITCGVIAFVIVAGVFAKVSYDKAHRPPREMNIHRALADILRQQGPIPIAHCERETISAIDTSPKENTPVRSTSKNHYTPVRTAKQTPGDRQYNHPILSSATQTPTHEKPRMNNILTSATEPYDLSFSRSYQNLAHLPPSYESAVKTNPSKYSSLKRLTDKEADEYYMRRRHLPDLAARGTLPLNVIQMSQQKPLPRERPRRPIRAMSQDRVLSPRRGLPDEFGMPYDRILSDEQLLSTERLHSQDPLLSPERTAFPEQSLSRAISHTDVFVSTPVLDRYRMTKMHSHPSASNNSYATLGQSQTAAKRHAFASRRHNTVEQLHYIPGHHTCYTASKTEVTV
UniProt Q9CZN4, residues 24-424: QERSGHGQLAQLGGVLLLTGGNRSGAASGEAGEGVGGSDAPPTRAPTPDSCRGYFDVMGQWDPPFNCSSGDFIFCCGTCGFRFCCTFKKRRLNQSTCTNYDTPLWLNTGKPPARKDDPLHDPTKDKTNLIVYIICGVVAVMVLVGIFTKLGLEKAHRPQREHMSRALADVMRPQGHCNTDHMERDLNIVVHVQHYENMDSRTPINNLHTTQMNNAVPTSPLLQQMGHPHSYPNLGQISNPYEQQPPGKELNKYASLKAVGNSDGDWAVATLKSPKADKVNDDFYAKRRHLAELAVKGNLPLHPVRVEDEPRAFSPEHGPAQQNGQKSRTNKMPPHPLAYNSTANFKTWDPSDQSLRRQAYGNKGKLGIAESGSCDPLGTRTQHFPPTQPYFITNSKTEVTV

The target in this test is T1, Shisa7 (native, mouse hippocampus) (mouse (endogenous in hippocampus)) (UniProt Q8C3Q5).
T1 sequence (chain, N-linked glycans (removed by PNGase-F)): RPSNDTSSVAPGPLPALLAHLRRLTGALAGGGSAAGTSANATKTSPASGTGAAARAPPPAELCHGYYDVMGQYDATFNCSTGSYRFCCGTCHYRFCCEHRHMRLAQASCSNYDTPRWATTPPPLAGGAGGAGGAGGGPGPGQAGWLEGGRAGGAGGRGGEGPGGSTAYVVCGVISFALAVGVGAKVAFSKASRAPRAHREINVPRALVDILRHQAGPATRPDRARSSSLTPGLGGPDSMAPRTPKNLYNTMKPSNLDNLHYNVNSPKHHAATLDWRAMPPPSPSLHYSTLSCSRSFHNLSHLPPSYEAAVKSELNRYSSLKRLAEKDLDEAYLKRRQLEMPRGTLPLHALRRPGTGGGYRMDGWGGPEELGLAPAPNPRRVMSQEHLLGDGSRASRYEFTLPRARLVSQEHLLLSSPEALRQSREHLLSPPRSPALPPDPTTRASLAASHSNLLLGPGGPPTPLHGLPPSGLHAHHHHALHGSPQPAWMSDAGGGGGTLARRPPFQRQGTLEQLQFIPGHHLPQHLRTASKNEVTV
The test is described as follows: affinity purification with mass spectrometry; anti-Shisa7 immunoprecipitation from DDM-extracted crude synaptic membranes of mouse hippocampus, WT against Shisa7 KO, n = 3 IPs per genotype; SDS-PAGE, in-gel digestion, TripleTOF 5600+.

These are yes or no findings as the source states them, for the method shown. In cells and extracts the contact can be indirect. A yes stands for co-enrichment or nearness to the bait. Other partners may have been found. No binding means not detected with the bait. Tags and fused reporters may be left off the sequences shown.

With “Glutamate receptor 3 (native, mouse hippocampus) (from UniProt Q9Z2W9 23-888)”, the binding entry was “binds”.
Then “Protein shisa-6 homolog (native, mouse hippocampus) (from UniProt Q3UH99 31-525)”, with “binds”; and “Shisa9 (native, mouse hippocampus) (from UniProt Q9CZN4 24-424)”, with “no binding”.
